Data reported in PubChem BioAssay AID504444 (National Center for Advancing Translational Sciences (NCATS), 2011).
Screen size: about 360,000 compounds; about 7,500 (2.1%) were called active. The inconclusive results got no clear call from the source; some entries with a clear call stand among them for comparison. The call rests on the fitted dose curve; in most records, active means well fitted inhibition curve with a large enough effect; inconclusive means small, poorly fitted or top-dose-only effect, or effect the other way; inactive means flat fitted curve, though single readings scatter. Potencies of inconclusive entries are doubtful fits and often do not repeat.

experiment: Nrf2 qHTS screen for inhibitors; settings: A549 ARE-Fluc reporter, luciferase luminescence, 18-24 h; series mostly up to 46 µM; further: nearly all actives have a fitted effect of over 60% in size
Summary of the method: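 Nrf2 activity is the BugLite luminescence, read 15 min after reagent at room temperature, following CellTiter-Fluor cytotoxicity readout (30 min, 37C). Compound titrations were applied for 18-24 h to 5000 A549 ARE_Fluc cells/well in 5% FBS OPTI-MEM.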
Potency means the concentration at half of the fitted maximal effect.

Question: With `COC(=O)c1ccc(CSc2nc3ccncc3n2Cc2ccc(F)cc2)cc1` as the molecule, how does the Potency read?
Answer: The Potency was inconclusive: 9.2 µM [activator, partial curve].

Question: With `CCn1c(=O)cc(SCC(=O)NCc2ccc(C)o2)c2ccccc21` as the molecule, how does the Potency read?
Answer: Its Potency is inconclusive: 20.6 µM [falling, single point].

Question: Which Potency does the source give for `NC(=O)c1ccc(N2CCN(c3ncc(C(F)(F)F)cc3Cl)CC2)cc1` here?
Answer: The Potency was inconclusive: 4.11 µM [falling, full curve, poor fit].

Question: With `Cc1cc(C)cc(OCC(=O)N2N=C(C(F)(F)F)CC2(O)C(C)(C)C)c1` (configuration not stated) as the molecule, how does the Potency read?
Answer: The Potency was “inactive”.

Question: Which Potency does the source give for `COc1ccc(CCNC(=O)CSc2nn(-c3ccccc3)c(=S)s2)cc1` here?
Answer: The Potency was inconclusive: 32.6 µM [falling, single point].

Question: Which Potency does the source give for `COc1ccc(-c2nnc(SCc3ccccc3)n2N)cc1` here?
Answer: The Potency was inconclusive: 7.31 µM [activator, partial curve].

Question: With `Cc1ccc(C(=O)NC(=S)Nc2cccc(-c3nc4ccccc4s3)c2)cc1` as the molecule, how does the Potency read?
Answer: Its Potency is inconclusive: 29.1 µM [activator, single point].

Question: With `CN(C)c1cc[n+](CC(=O)c2cccs2)cc1` as the molecule, how does the Potency read?
Answer: Its Potency is inconclusive: 11.6 µM [falling, partial curve, poor fit].

Question: With `COc1ccccc1OCCNC(=O)c1ccc2c(c1)OCCO2` as the molecule, how does the Potency read?
Answer: The Potency was inconclusive: 2.06 µM [activator, full curve].

Question: For `COc1ccc(NC(=O)CN(C)C(=O)Cc2c(C)nc3ccccc3c2C)cc1`, which Potency is on record?
Answer: The Potency was inconclusive: 18.4 µM [falling, single point].

Question: With `Oc1ccc(C23CCCC2C2(CCCC2)c2ccc(O)cc2O3)c(O)c1` (configuration not stated) as the molecule, how does the Potency read?
Answer: Its Potency is inconclusive: 29.1 µM [falling, single point].

Question: With `CCc1cc(Cn2nc(-c3ccccc3)cc2C(=O)NCc2cccc(Br)c2)on1` as the molecule, how does the Potency read?
Answer: Its Potency is inconclusive: 18.4 µM [falling, single point].

Question: With `CCCCCC1CC1C(=O)N/N=C/c1ccc(N(C)C)cc1` (configuration not stated) as the molecule, how does the Potency read?
Answer: The Potency was “inactive”.

Question: For `Cc1ccc(/C=C(\CCC(=O)O)c2nc3ccccc3s2)cc1[N+](=O)[O-]`, which Potency is on record?
Answer: Its Potency is inconclusive: 23.1 µM [falling, partial curve].

Question: Which Potency does the source give for `CCc1ccc(-c2cc(C(F)(F)F)n3nc(C(=O)Nc4cnn(Cc5ccc(C)cc5)c4)cc3n2)s1` here?
Answer: Its Potency is active: 8.2 µM.

Question: For `O=C(CN1CCN(C(=O)c2ccco2)CC1)Nc1cccc([N+](=O)[O-])c1`, which Potency is on record?
Answer: Its Potency is inconclusive: 29.1 µM [falling, partial curve, poor fit].

Question: With `CC(=O)c1c(C)cc(C)c(CSc2nnc(-c3ccco3)o2)c1C` as the molecule, how does the Potency read?
Answer: Its Potency is inconclusive: 3.66 µM [falling, full curve].

Question: With `CCc1nnc(NC(=O)c2ccc(OC)cc2OC)s1` as the molecule, how does the Potency read?
Answer: Its Potency is inconclusive: 0.231 µM [activator, full curve].

Question: For `COc1cccc(C2=NN(S(C)(=O)=O)C(c3cccs3)C2)c1` (configuration not stated), which Potency is on record?
Answer: Its Potency is inconclusive: 23.1 µM [activator, single point].

Question: For `CCCN1C(=O)/C(=C/c2c(N3CCNC(=O)C3CC(=O)OCC)nc3c(C)cccn3c2=O)SC1=S` (configuration not stated), which Potency is on record?
Answer: The Potency was active: 20.6 µM.

Question: With `O=C(O)c1ccc(N=Nc2c(O)[nH]c3ccccc23)cc1` as the molecule, how does the Potency read?
Answer: The Potency was inconclusive: 16.4 µM [activator, partial curve].

Question: With `CCOc1ccc(CCNC(=O)CN2C(=O)COc3ccc(S(=O)(=O)N(CC)CC)cc32)cc1` as the molecule, how does the Potency read?
Answer: The Potency was active: 23.1 µM.

Question: With `O=C(Nc1ccc(Cl)cn1)C1CCN(S(=O)(=O)c2cccs2)CC1` as the molecule, how does the Potency read?
Answer: The Potency was inconclusive: 20.6 µM [falling, single point].

Question: For `COC(=O)c1[nH]c2ccc(C)cc2c1NC(=O)C(C)N1CCN(C2CCCCC2)CC1` (configuration not stated), which Potency is on record?
Answer: Its Potency is “inactive”.

Question: For `O=C(Nc1ccccc1)c1ccc(NC(=O)C2CC2)cc1`, which Potency is on record?
Answer: Its Potency is inconclusive: 0.651 µM [activator, full curve].

Question: Which Potency does the source give for `CC(C)(C)OC(=O)NCc1ccc(NC(=O)c2nc[nH]c2C(=O)NCCCCNC(=O)c2[nH]cnc2C(=O)Nc2ccc(CNC(=O)OC(C)(C)C)cc2)cc1` here?
Answer: The Potency was inconclusive: 8.2 µM [falling, partial curve, poor fit].

Question: Which Potency does the source give for `Cc1nc(N(C)Cc2ccccc2)c2nnn(Cc3ccccc3)c2n1` here?
Answer: The Potency was inconclusive: 29.1 µM [falling, single point].

Question: With `COc1cc2c(cc1OC)[C@H](C)N(C(=O)COc1ccccc1)CC2` as the molecule, how does the Potency read?
Answer: Its Potency is inconclusive: 29.1 µM [falling, single point].

Question: Which Potency does the source give for `Nc1nc(Nc2ccccc2F)nc(N2CCCC2)c1[N+](=O)[O-]` here?
Answer: The Potency was inconclusive: 5.8 µM [activator, partial curve].

Question: Which Potency does the source give for `CCOc1ccc2nc(NC(=O)c3ccccn3)sc2c1` here?
Answer: Its Potency is inconclusive: 29.1 µM [falling, single point].

Question: With `O=C(Nc1ccc(S(=O)(=O)NC2=NCCCCC2)cc1)c1ccc(Cl)cc1Cl` as the molecule, how does the Potency read?
Answer: Its Potency is active: 16.4 µM.

Question: Which Potency does the source give for `COc1ccc(NC(=O)N2CCN(c3cccc(C(F)(F)F)c3)CC2)cc1OC` here?
Answer: Its Potency is inconclusive: 29.1 µM [falling, single point].

Question: For `Cc1ccc(S(=O)(=O)NCCC2(C(C)C)CCOC(C)(C)C2)cc1` (configuration not stated), which Potency is on record?
Answer: Its Potency is inconclusive: 18.4 µM [falling, partial curve].

Question: Which Potency does the source give for `O=C(C1CC(=O)N(c2ccc(F)cc2)C1)N1CCN(c2ccc(F)cc2)CC1` (configuration not stated) here?
Answer: Its Potency is “inactive”.

Question: For `COc1ccc(/C=N/NC(=O)c2ccccc2)cc1OS(=O)(=O)c1ccccc1`, which Potency is on record?
Answer: Its Potency is inconclusive: 25.9 µM [falling, partial curve].

Question: For `Cc1ccc(S(=O)(=O)NCC(=O)N2CCOCCOCCOCC2)cc1`, which Potency is on record?
Answer: Its Potency is “inactive”.

Question: For `Cc1oc(-c2ccccc2Cl)nc1CSCC(=O)O`, which Potency is on record?
Answer: The Potency was inconclusive: 14.6 µM [falling, partial curve].

Question: For `CCOc1ccccc1OCCCNCc1ccco1`, which Potency is on record?
Answer: Its Potency is “inactive”.

Question: For `O=C(O)Cn1c(-c2ccccc2)nc2ccccc21`, which Potency is on record?
Answer: Its Potency is inconclusive: 14.6 µM [activator, partial curve, poor fit].

Question: For `O=C(Nc1ccc2nc(SCC(=O)N3CCCC3)sc2c1)c1cccc(F)c1`, which Potency is on record?
Answer: Its Potency is inconclusive: 29.1 µM [falling, single point].

Question: For `CCc1ccc(-n2c(=O)c3ccc(C(=O)NCCc4ccccc4)cc3n(Cc3ccccc3C#N)c2=O)cc1`, which Potency is on record?
Answer: The Potency was inconclusive: 29.1 µM [activator, single point].

Question: With `Cc1cccc2cc(C3CC(c4cccs4)=NN3S(C)(=O)=O)c(Cl)nc12` (configuration not stated) as the molecule, how does the Potency read?
Answer: The Potency was inconclusive: 20.6 µM [falling, single point].
